Measurements as given in publication PMC10952895, “Assessment of the potential of novel and classical opioids to induce respiratory depression in mice” (British Journal of Pharmacology, 2023).

Test system: T1, μ-receptor (μ-receptor-RLuc8)
T1 construct: gene Oprm1; construct from Gillis, Gondin et al. 2020
Test: BRET, Nb33-Venus recruitment to μ-receptor-RLuc8 in HEK293 cells
Format: cell-based
Conditions: agonist; 10 min after addition, normalised to DAMGO

Question: Which pEC50 does the source give for `CCC(=O)C(CC(C)N(C)C)(c1ccccc1)c1ccccc1` (stereo not shown) [methadone] here?
Answer: 6.5 ± 0.05
